In the supplement of paper PMC8256030:
Structures can show the parent of a compound that is named as a salt. This is one part of the list. Repeats in this data set agree poorly, so a single value says little.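 HEK293T cells were given each compound shortly before transfection with a reporter in which red mCherry is followed by the SARS-CoV-2 frameshift element and then GFP in the −1 frame, so GFP appears only after frameshifting.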

tested on: HEK293T; test: percent viability (nuclei count) relative to control; higher = more viable cells; settings: 10 µM; 24 h

SMILES | percent viability [%]
O=C(NCCc1ccc(O)c(O)c1)C12CC3CC(CC(C3)C1)C2 [dopamantine] | 194
CCCNC(=O)NS(=O)(=O)c1ccc(Cl)cc1 [Chlorpropamide] | 266
CC(C)(Oc1ccccc1)C(=O)OCCN1CCOCC1 [promolate] | 278
Nc1ccc(S(=O)(=O)Nc2ccc(Cl)nn2)cc1 [sulfachlorpyridazine] | 162
CCCCCCC[N+](CC)(CC)CCCCc1ccc(Cl)cc1 [clofilium tosylate] | 89.9
CC[C@]1(O)C[C@H]2CN(CCc3c([nH]c4ccccc34)[C@@](C(=O)OC)(c3cc4c(cc3OC)N(C=O)[C@H]3[C@@](O)(C(=O)OC)[C@H](OC(C)=O)[C@]5(CC)C=CCN6CC[C@]43[C@@H]65)C2)C1 | 17.8
C=CC1=C(C(=O)O)N2C(=O)[C@@H](NC(=O)/C(=N\O)c3csc(N)n3)[C@H]2SC1 [Omnicef] | 277
Cn1cnc([N+](=O)[O-])c1Sc1ncnc2[nH]cnc12 [azathioprine] | 124

Arranged by molar mass (largest number first): part of the list above.
SMILES | percent viability [%]
O=C(NCCc1ccc(O)c(O)c1)C12CC3CC(CC(C3)C1)C2 [dopamantine] | 194
CC(C)(Oc1ccccc1)C(=O)OCCN1CCOCC1 [promolate] | 278
Nc1ccc(S(=O)(=O)Nc2ccc(Cl)nn2)cc1 [sulfachlorpyridazine] | 162
